Experimental findings from PMC10992996 are described below.

The chains behind the UniProt entries cited, without tags or fusion partners. Residues count along the entry.
UniProt Q5IJ48, residues 29-1285: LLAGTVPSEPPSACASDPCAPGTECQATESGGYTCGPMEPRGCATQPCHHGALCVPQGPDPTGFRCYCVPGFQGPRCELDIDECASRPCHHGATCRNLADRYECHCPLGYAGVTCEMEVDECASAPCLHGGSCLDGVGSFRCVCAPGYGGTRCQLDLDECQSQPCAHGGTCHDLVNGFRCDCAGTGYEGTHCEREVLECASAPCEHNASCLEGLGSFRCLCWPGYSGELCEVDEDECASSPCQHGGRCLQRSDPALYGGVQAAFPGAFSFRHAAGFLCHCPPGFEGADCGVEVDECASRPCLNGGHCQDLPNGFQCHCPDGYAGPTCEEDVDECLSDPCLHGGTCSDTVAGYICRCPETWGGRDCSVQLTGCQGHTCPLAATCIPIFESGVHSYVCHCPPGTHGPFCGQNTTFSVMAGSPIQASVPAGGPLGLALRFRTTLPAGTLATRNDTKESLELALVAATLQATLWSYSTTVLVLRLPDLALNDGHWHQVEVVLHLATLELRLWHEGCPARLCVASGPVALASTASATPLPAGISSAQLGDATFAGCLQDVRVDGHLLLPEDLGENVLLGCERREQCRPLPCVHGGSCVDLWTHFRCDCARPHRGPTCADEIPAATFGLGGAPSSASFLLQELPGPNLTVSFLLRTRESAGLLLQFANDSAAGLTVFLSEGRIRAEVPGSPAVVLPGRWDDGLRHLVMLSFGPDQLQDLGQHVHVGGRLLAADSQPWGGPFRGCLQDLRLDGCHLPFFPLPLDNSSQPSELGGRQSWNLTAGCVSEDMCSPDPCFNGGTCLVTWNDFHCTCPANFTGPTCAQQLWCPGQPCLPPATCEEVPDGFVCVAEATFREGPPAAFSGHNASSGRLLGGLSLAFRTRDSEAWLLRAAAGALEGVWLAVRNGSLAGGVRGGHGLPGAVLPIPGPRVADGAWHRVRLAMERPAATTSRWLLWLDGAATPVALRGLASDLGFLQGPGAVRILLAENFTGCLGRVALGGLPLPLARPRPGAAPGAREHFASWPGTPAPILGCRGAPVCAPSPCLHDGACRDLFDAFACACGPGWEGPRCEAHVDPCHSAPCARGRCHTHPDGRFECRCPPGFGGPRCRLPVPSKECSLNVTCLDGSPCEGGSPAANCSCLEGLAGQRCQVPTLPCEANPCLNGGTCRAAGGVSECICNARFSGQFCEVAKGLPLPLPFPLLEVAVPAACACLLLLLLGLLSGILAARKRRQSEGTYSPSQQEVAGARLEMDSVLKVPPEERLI

What all share (test): co-IP; HEK293T cells co-transfected pairwise with a FLAG and an HA construct, 48 h; lysis in TBS (30 mM Tris-HCl pH 7.4, 150 mM NaCl) with 0.5% Nonidet P40; FLAG-IP on ANTI-FLAG M2 Affinity Gel 60-90 min at 4°C, elution with FLAG peptide; Western blot with HA and FLAG antibodies; for mutants HA/FLAG signal in eluates relative to WT, three biological replicates
Test [1] concerns the target T1, Human canonical CRB1 (Crumbs homolog 1) (human) (UniProt P82279).
T1 sequence: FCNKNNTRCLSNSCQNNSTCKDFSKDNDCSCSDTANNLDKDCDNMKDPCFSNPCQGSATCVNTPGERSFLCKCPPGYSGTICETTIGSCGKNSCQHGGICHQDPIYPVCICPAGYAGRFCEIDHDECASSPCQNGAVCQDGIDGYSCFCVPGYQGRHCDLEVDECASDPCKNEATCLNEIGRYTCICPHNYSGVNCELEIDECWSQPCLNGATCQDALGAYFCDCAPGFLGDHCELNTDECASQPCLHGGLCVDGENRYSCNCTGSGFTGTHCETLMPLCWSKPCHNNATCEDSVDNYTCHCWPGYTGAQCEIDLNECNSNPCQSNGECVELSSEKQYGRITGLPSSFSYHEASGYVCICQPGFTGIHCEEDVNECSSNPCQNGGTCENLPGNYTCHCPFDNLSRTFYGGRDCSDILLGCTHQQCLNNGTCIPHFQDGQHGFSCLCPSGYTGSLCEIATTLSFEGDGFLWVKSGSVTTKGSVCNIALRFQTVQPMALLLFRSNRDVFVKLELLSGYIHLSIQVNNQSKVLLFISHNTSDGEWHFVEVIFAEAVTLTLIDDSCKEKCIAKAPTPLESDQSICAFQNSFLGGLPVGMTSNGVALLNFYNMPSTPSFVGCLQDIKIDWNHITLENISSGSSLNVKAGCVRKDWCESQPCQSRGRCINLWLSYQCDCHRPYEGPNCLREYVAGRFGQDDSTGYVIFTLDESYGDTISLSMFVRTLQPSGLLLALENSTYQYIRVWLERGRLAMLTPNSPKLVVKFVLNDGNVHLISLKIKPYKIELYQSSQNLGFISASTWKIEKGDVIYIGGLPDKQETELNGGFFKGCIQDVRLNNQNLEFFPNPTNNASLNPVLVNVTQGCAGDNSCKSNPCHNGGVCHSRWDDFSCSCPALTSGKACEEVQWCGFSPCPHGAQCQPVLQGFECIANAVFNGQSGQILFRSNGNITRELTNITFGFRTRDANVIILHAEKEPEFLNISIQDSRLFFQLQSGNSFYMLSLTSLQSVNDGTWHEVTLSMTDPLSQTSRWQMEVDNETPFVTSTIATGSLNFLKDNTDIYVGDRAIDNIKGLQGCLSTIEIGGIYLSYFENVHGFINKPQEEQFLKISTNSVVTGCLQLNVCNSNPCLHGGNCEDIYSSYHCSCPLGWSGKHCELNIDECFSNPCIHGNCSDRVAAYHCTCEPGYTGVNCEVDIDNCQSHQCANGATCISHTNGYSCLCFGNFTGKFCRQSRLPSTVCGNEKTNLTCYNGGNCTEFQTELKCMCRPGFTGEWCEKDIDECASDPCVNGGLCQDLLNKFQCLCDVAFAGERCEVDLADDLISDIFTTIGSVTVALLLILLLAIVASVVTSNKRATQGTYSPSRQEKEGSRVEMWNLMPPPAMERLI

Test [2] addresses T2, Human CRB3 (Crumbs homolog 3) (human) (UniProt Q9BUF7).
T2 sequence: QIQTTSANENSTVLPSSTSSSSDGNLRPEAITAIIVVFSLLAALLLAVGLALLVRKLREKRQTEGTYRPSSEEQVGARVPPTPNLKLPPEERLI

Test [3] has as its target Human canonical CRB2 (Crumbs homolog 2) (human) (UniProt Q5IJ48).
Test [4] deals with T3, Human CRB3 (Crumbs homolog 3) (human), Q9BUF7.
T3 chain: T2 sequence
The note with it: remark: other sources report otherwise.

No constants are given. Whether binding was seen depends on the method and setting. Binding seen in cells or lysates may run through a third protein. Some results given as binding are weak or reduced against the parent protein; the word gives no strength.

B1: Human canonical CRB1 (Crumbs homolog 1) (protein, UniProt P82279 26-1406)
chain: T1 sequence
Consider B1, for which the binding entry in test [1] is recorded as “binds”; in test [2] it was “no binding”; in test [3], “binds”.

B2: Human CRB3 (Crumbs homolog 3) (protein, UniProt Q9BUF7-1 27-120)
chain: T2 sequence
Consider B2, for which the binding entry in test [1] and in test [3] was “no binding” in each case.

B3: Human CRB3 (Crumbs homolog 3), Q9BUF7-1 27-120 (protein)
chain: T2 sequence
Regarding B3, the binding result in test [4] is on record as “no binding”.
